# Source: patent US20180050082A1, “SERPINS FOR THE TREATMENT OF NEUROINFLAMMATORY DISEASES” (Anvil Biosciences, LLC, priority 2015, published 2018)
# “Also recorded” adds a separate entry of the source. For at least one compound, name, drawing or mass did not settle the structure.
# Assay: Body weight in NMO mouse model, blinded study (Example 3)
# Assay type: in vivo, C57BL/6 mice
# Conditions: FIG. 4; 10 recipient mice per cohort
structure (smiles),measurement,value
"C[C@H]1C[C@@H]2[C@H]([C@@H](O)C[C@@]3(C)[C@H]2CC[C@]3(O)C(=O)CO)[C@@]2(C)C=CC(=O)C=C12 [Mpred, methylprednisolone]",Body weight loss (mean body weight as a percentage of the value at day 0),appeared to cause early weight loss from Day 5 to Day 7; also recorded: weight loss was similar to PBS (control)
